Results deposited as PubChem BioAssay AID1259424 (University of Nebraska Medical Center, 2018)
The whole screen tested about 14,000 reagents; shown is an unselected part. 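Higher correlation or smaller distance means closer resemblance to KSR1 loss; control wells, including KSR1 knockdowns, recur on many plates.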 Reagents against one gene are numbered here. Reagent sequences are not shown. Not stated in the record: the time to read-out.

Purpose: 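Rank knockdowns across the genome by resemblance to the KSR1 depletion profile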 (primary screen)
Cells: human HCT116 colon cancer cells
Reagents: siRNA pool against human genes, 50 nM
Measurement: 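Log2 levels of six mRNAs (branched-DNA multiplex), adjusted by two reference genes and the non-targeting median, then scored against the average KSR1 knockdown pattern as Pearson r and euclidean distance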
Direction: mean correlation with KSR1 profile and KSR1 correlation: higher = expression change more like KSR1 knockdown; mean distance from KSR1 profile: higher = expression change less like KSR1 knockdown

no.	gene	reagent no.	mean correlation with KSR1 profile	mean distance from KSR1 profile	KSR1 correlation, replicate 1	KSR1 correlation, replicate 2	KSR1 correlation, replicate 3
1	TP53BP2 (GeneID 7159)	1	-0.123	1.58	-0.116	-0.257	-0.145
2	L1TD1 (GeneID 54596)	1	0.0607	2.27	0.0121	0.071	0.118
3	RCAN3 (GeneID 11123)	1	0.0834	1.37	0.215	-0.123	0.178
4	MT-ATP8 (GeneID 4509)	1	-0.23	1.91	-0.243	-0.421	-0.204
5	PIWIL1 (GeneID 9271)	1	-0.125	3.58	-0.195	-0.197	-0.0251
6	SMARCD3 (GeneID 6604)	1	0.292	1.75	0.295	0.489	0.271
7	ZNF574 (GeneID 64763)	1	-0.389	3.64	-0.422	-0.489	-0.332
8	PGM1 (GeneID 5236)	1	0.162	1.55	0.369	0.243	-0.0114
9	RUNX1-IT1 (GeneID 80215)	1	-0.0458	2.83	-0.356	-0.00429	-0.0249
10	CILP (GeneID 8483)	1	-0.0343	3.69	0.143	-0.0871	-0.176
11	HRC (GeneID 3270)	1	-0.687	2.3	-0.549	-0.871	-0.517
12	TRIB2 (GeneID 28951)	1	0.258	2.95	0.43	0.406	-0.0249
13	OPRPN (GeneID 58503)	1	0.113	2.27	0.0923	-0.00692	0.118
14	USP46 (GeneID 64854)	1	0.251	0.984	0.219	-0.206	0.51
15	GC (GeneID 2638)	1	0.472	1.48	0.636	0.238	0.409
16	ARHGAP4 (GeneID 393)	1	-0.0785	1.72	0.122	-0.183	-0.279
17	NKD1 (GeneID 85407)	1	0.618	1.11	0.615	0.627	0.196
18	PHPT1 (GeneID 29085)	1	-0.337	3.14	-0.37	-0.288	-0.41
19	LILRA3 (GeneID 11026)	1	0.251	1.87	0.309	0.167	0.224
20	CYBA (GeneID 1535)	1	-0.0966	4.14	0.00933	-0.0398	0.0272
21	AGK (GeneID 55750)	1	0.413	1.78	0.579	0.33	0.00974
22	PNMA2 (GeneID 10687)	1	0.336	1.42	0.405	0.248	0.346
23	TWIST1 (GeneID 7291)	1	0.121	2.57	0.329	0.118	-0.042
24	SCNM1 (GeneID 79005)	1	0.4	6.55	0.244	0.26	0.436
25	KAT2A (GeneID 2648)	1	-0.457	2.28	-0.503	-0.589	-0.419
26	MECOM (GeneID 2122)	1	0.617	0.952	0.724	0.772	0.42
27	MECOM (GeneID 2122)	2	0.267	3.09	0.442	0.0519	0.258
28	PART1 (GeneID 25859)	1	-0.733	3.14	-0.594	-0.774	-0.655
29	LAMP2 (GeneID 3920)	1	0.324	2.28	0.191	0.139	0.356
30	CHIT1 (GeneID 1118)	1	0.422	4.82	0.431	0.439	0.253
31	SERPIND1 (GeneID 3053)	1	-0.113	3.77	-0.432	0.16	0.021
32	KIAA1328 (GeneID 57536)	1	-0.748	4.77	-0.665	-0.519	-0.618
33	MTHFR (GeneID 4524)	1	0.0538	2.04	0.118	-0.115	0.0109
34	AHR (GeneID 196)	1	-0.69	1.72	-0.597	-0.478	-0.835
35	MEIS3 (GeneID 56917)	1	0.129	2.55	0.153	0.232	0.293
36	HLX (GeneID 3142)	1	-0.171	1.58	0.0105	0.245	-0.341
37	SLC26A2 (GeneID 1836)	1	-0.665	2.05	-0.49	-0.449	-0.588
38	CD248 (GeneID 57124)	1	-0.293	2.54	-0.169	-0.372	-0.0221
39	MED13L (GeneID 23389)	1	0.302	1.54	0.387	-0.234	0.259
40	PHOX2A (GeneID 401)	1	-0.1	1.71	0.188	0.143	-0.00537
41	SEC24B (GeneID 10427)	1	-0.105	1.41	-0.0515	-0.0511	-0.238
42	BCL2A1 (GeneID 597)	1	-0.233	1.26	-0.475	-0.00395	-0.197
43	RFX5 (GeneID 5993)	1	0.254	1.51	0.0983	0.00806	0.445
44	FAH (GeneID 2184)	1	0.124	3.48	0.316	0.364	0.218
45	MYF5 (GeneID 4617)	1	-0.331	2.3	-0.164	-0.119	-0.475
46	SEZ6L (GeneID 23544)	1	0.453	1.89	0.596	-0.0504	0.381
47	ECI2 (GeneID 10455)	1	-0.41	3.42	-0.642	-0.436	-0.269
48	CSTF3 (GeneID 1479)	1	0.73	1.21	0.784	0.631	0.737
49	ALS2 (GeneID 57679)	1	0.46	1.07	0.36	0.542	0.492
50	FBXO5 (GeneID 26271)	1	0.485	0.832	0.641	0.295	0.259
